Results on one molecule are retold here after patent US8003785B2 (Takeda Pharmaceutical Company Limited, priority 2008, dated 2011).

Chains of the proteins cited; added tags and fusions are not shown.
UniProt P53350, whole entry: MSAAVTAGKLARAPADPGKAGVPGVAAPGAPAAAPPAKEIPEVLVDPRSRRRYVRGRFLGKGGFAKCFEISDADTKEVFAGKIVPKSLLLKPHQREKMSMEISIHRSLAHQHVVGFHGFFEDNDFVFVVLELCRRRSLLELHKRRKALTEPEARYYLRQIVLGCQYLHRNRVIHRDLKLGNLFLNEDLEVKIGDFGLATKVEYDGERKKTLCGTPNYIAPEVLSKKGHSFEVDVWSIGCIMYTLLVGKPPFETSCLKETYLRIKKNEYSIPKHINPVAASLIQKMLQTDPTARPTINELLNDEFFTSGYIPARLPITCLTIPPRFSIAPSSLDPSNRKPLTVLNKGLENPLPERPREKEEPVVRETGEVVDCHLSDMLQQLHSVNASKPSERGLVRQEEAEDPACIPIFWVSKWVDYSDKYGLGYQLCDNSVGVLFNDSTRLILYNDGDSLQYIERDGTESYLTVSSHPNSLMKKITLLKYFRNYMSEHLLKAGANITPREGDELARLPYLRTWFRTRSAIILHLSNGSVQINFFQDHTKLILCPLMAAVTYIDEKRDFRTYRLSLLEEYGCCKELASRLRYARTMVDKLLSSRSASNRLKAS

Each structure is given as a SMILES string.

The target of this assay is T1, PLK1 (Homo sapiens, UniProt P53350).
T1 construct: Full-length, active GST-PLK1 is purified from Sf9 insect cells; made in house; host or cells: Sf9 insect cells
The assay can be described thus: Biochemical Characterization Assay: HTRF kinase assay, GST-PLK1 phosphorylation of GST-p53. The conditions noted are these: GST-PLK1, GST-p53 substrate, ATP. The method, then: Biochemical Characterization Assay
Full-length, active GST-PLK1 is purified from Sf9 insect cells, and full-length GST-p53 is purified from E. coli. Anti-phospho p53 antibody is from Cell Signaling Technology. Europium-conjugated anti-rabbit antibody is from PerkinElmer Life and Analytical Sciences. APC-conjugated anti-GST antibody is from Prozyme.
Six microliters of GST-PLK1 (3 ug/mL) in Kinase Assay Buffer are then added and the solution incubated at 37° C. for 35 minutes. Six microliters of solution containing 43 mM EDTA to stop the reaction and a 1:600 dilution of anti-phospho-p53 antibody in 20 mM HEPES pH 7, 50 mM NaCl, and 0.5 mg/mL BSA (Antibody Binding Buffer) are added and the solution incubated at 37° C. for 30 minutes. […] The HTRF signal is read on an Envision reader from PerkinElmer Life and Analytical Sciences.
On the technique in general: Time-resolved FRET reads energy transfer from a long-lived donor to a nearby acceptor.

For orientation: IC50 means the point on the concentration scale where inhibition reaches its midpoint. Take `COc1cc(C(=O)O)ccc1Nc1ncc2c(n1)N(C1CCCC1)CC(F)(F)C(=O)N2C` [Example I-22, 4-(9-cyclopentyl-7,7-difluoro-5-methyl-6-oxo-6,7,8,9-tetrahydro-5H-pyrimido[4,5-b][1,4]diazepin-2-ylamino)-3-methoxy-benzoic acid]: the IC50 was 1 to 50 nM.
